Data from publication PMC10617773.
Results are given in words; binding and its absence hold for the method and conditions named. In cells and extracts the contact can be indirect. A yes stands for co-enrichment or nearness to the bait. Other partners may have been found. For some assays here: Sequences can lack the tags named with a protein.

Protein sequences, listed by entry. Tags and fused reporters are not part of them.
UniProt Q62167: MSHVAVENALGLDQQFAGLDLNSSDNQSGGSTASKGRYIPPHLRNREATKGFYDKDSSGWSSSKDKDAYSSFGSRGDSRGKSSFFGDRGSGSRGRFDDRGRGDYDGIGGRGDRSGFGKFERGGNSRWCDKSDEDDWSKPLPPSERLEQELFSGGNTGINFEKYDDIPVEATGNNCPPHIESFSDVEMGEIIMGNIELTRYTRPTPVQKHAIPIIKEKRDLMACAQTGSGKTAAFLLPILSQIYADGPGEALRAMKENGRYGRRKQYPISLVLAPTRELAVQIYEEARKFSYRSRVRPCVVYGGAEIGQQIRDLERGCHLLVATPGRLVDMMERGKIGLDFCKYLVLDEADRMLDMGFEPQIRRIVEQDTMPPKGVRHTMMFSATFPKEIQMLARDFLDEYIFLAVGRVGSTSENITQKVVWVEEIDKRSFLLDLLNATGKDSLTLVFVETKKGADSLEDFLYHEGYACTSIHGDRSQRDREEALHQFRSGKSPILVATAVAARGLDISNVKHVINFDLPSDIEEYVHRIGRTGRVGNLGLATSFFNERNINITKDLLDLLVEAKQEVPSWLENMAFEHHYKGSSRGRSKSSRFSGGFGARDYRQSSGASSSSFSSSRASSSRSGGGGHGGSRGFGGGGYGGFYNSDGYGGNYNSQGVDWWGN
UniProt P35991: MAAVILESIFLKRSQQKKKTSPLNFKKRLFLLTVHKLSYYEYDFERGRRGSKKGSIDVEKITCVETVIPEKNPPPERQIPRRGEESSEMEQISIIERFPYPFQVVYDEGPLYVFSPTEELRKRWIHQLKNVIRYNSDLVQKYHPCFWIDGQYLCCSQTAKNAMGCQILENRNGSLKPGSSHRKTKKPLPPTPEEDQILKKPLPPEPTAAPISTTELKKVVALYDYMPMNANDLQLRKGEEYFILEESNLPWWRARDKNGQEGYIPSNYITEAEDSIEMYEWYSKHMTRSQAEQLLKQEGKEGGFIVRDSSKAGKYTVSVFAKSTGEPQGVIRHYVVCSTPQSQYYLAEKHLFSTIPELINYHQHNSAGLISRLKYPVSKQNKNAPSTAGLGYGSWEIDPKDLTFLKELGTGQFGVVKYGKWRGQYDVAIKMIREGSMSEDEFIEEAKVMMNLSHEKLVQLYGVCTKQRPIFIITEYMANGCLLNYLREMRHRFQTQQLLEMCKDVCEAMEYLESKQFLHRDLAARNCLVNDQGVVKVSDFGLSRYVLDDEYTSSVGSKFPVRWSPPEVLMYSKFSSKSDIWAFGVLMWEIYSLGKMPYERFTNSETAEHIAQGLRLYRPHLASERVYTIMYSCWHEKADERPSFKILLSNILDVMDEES

T1: BASU-tagged PLK1 (biotin ligase BASU connected to murine PLK1 with a (GGGS)3 linker) (mouse), Q07832
T1 chain: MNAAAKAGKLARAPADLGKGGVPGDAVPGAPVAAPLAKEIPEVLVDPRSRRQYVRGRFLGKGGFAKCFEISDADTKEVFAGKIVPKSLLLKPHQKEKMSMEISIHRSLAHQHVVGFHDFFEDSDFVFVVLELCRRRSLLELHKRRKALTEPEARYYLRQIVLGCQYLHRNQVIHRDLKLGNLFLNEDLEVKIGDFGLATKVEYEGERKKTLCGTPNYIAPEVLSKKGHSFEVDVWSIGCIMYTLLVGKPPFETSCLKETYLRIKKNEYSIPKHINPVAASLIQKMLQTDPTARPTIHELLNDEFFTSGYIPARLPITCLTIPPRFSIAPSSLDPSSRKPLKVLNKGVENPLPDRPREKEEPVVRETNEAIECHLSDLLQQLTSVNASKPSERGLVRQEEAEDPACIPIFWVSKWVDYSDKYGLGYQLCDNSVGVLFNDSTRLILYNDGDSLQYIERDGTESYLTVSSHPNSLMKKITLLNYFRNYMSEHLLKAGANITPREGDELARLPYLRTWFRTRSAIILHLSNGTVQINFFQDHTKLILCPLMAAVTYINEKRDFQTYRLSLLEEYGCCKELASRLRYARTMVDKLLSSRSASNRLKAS


How the values were obtained:
[1] = biological target: BASU-tagged PLK1 (biotin ligase BASU connected to murine PLK1 with a (GGGS)3 linker) (mouse) (UniProt Q07832); test: proximity labelling; Bio-ID: iBMDMs stably expressing BASU-PLK1, primed (100 ng/mL LPS) and activated (10 μM nigericin, 2 hours) with 50 μM biotin, Ac-YVAD-cmk and glycine; biotinylated proteins purified on streptavidin magnetic beads, TMT labeling and LC-MS/MS; activated against primed; candidates that responded to BASU alone removed
[2] = biological target: T1, BASU-tagged PLK1 (biotin ligase BASU …); test: as above; details: remark: other sources report otherwise

Molecule	binding [1]	binding [2]
DDX3X (from UniProt Q62167 1-662)	binds	–
BTK (from UniProt P35991 1-659)	binds	–
PKR (protein, UniProt Q03963 1-515) MASDTPGFYMDKLNKYRQMHGVAITYKELSTSGPPHDRRFTFQVLIDEKEFPEAKGRSKQEARNAAAKLAVDILDNENKVDCHTSASEQGLFVGNYIGLVNSFAQKKKLSVNYEQCEPNSELPQRFICKCKIGQTMYGTGSGVTKQEAKQLAAKEAYQKLLKSPPKTAGTSSSVVTSTFSGFSSSSSMTSNGVSQSAPGSFSSENVFTNGLGENKRKSGVKVSPDDVQRNKYTLDARFNSDFEDIEEIGLGGFGQVFKAKHRIDGKRYAIKRVKYNTEKAEHEVQALAELNHVNIVQYHSCWEGVDYDPEHSMSDTSRYKTRCLFIQMEFCDKGTLEQWMRNRNQSKVDKALILDLYEQIVTGVEYIHSKGLIHRDLKPGNIFLVDERHIKIGDFGLATALENDGKSRTRRTGTLQYMSPEQLFLKHYGKEVDIFALGLILAELLHTCFTESEKIKFFESLRKGDFSNDIFDNKEKSLLKKLLSEKPKDRPETSEILKTLAEWRNISEKKKRNTC	binds	–
GBP5 (protein, UniProt Q8CFB4 1-590) MAPEIHMPEPLCLIGSTEGHLVTNQEALKILSAITQPVVVVAIVGLYRTGKSYLMNKLAGKEKGFSVGSTVQSHTKGIWMWCVPHPQKPDHTLVLLDTEGLGDVEKDDKKNDTQIFALAILLSSTFVYNTMNKIDQGAIDLLHNVTELTDLLRTRNSSDSNQTEGEGPADMSFFPDLVWTLRDFFLDLQANGHAITSDEYLENSLKLKQGSDERTQTFNLPRLCIQKFFPVKKCFVFDAPALGSKLSQLPTLSNEELNSDFVQDLSEFCSHIFTQSKTKTLPGGIQVNGPRLESLVLTYVDAINSGALPSIENTVVTLARRENSAAVQKAIGHYDQLMSEKVQLPTETLQELLDLHRTCEREAIEIFRKHSFKDEGEFFQKELESLLSAKQDEICKKNADASAALCSTLLGSIFKPLEQEVAQEFYHKPGGHKLFLQRMEQLKANYRQQPGKGTQAEEVLQTYLNAKETVSRTILQTDQVLTDKEIQSKAEQERAEAARLEAQRLEAIRIQEEQRKAEMERQHQEQLRQIALEKARVAQEQQWILKQRAQEEADRIKAEQEAQLRALQQQLQHMREMNHHRRHHHDCVIS	binds	–
NLR family pyrin domain-containing 3 (NLRP3), endogenous murine, Q8R4B8 1-1033 (protein) MTSVRCKLAQYLEDLEDVDLKKFKMHLEDYPPEKGCIPVPRGQMEKADHLDLATLMIDFNGEEKAWAMAVWIFAAINRRDLWEKAKKDQPEWNDTCTSHSSMVCQEDSLEEEWMGLLGYLSRISICKKKKDYCKMYRRHVRSRFYSIKDRNARLGESVDLNSRYTQLQLVKEHPSKQEREHELLTIGRTKMRDSPMSSLKLELLFEPEDGHSEPVHTVVFQGAAGIGKTILARKIMLDWALGKLFKDKFDYLFFIHCREVSLRTPRSLADLIVSCWPDPNPPVCKILRKPSRILFLMDGFDELQGAFDEHIGEVCTDWQKAVRGDILLSSLIRKKLLPKASLLITTRPVALEKLQHLLDHPRHVEILGFSEAKRKEYFFKYFSNELQAREAFRLIQENEVLFTMCFIPLVCWIVCTGLKQQMETGKSLAQTSKTTTAVYVFFLSSLLQSRGGIEEHLFSDYLQGLCSLAADGIWNQKILFEECDLRKHGLQKTDVSAFLRMNVFQKEVDCERFYSFSHMTFQEFFAAMYYLLEEEAEGETVRKGPGGCSDLLNRDVKVLLENYGKFEKGYLIFVVRFLFGLVNQERTSYLEKKLSCKISQQVRLELLKWIEVKAKAKKLQWQPSQLELFYCLYEMQEEDFVQSAMDHFPKIEINLSTRMDHVVSSFCIKNCHRVKTLSLGFFHNSPKEEEEERRGGRPLDQVQCVFPDTHVACSSRLVNCCLTSSFCRGLFSSLSTNRSLTELDLSDNTLGDPGMRVLCEALQHPGCNIQRLWLGRCGLSHQCCFDISSVLSSSQKLVELDLSDNALGDFGIRLLCVGLKHLLCNLQKLWLVSCCLTSACCQDLALVLSSNHSLTRLYIGENALGDSGVQVLCEKMKDPQCNLQKLGLVNSGLTSICCSALTSVLKTNQNFTHLYLRSNALGDTGLRLLCEGLLHPDCKLQMLELDNCSLTSHSCWNLSTILTHNHSLRKLNLGNNDLGDLCVVTLCEVLKQQGCLLQSLQLGEMYLNRETKRALEALQEEKPELTIVFEISW	–	binds
